In patent publication US8518924B2, “Agent for inhibiting visceral fat accumulation” (Morinaga Milk Industry Co., Ltd., priority 2005, dated 2013):

Assay: Effect on amount of food consumption and increase in body weight of ZDF rats
Format: in vivo, rat
Settings: 10 μg/ml solution; for Amount of food consumption compared with negative sample group (in words) / Amount of increased body weight compared with negative sample group (in words): oral once a day; for Amount of increased body weight compared with negative sample group (in words): 42 days; for Increased body weight: during 42 days per rat; for Increased body weight / Amount of food consumption: oral 1 ml per 400 g body weight once a day; for Amount of food consumption: per day per rat, average of about weekly measurements

| SMILES | Amount of food consumption compared with negative sample group (in words) | Amount of increased body weight compared with negative sample group (in words) | Increased body weight [g] | Amount of food consumption [g] |
| --- | --- | --- | --- | --- |
| CC(C)CCCC(C)C1CCC2C3=CCC4C(C)C(O)CCC4(C)C3CCC21C (stereo not drawn) [Compound 3, 4-methylcholest-7-en-3-ol] | did not show significant increase or decrease in amount of food consumption | almost the same as that of the group administered with the negative sample | 137.7 ± 10.8 | 21.7 ± 2.0 |
| CC(C)C(C)CCC(C)C1CCC2C3=CCC4C(C)C(O)CCC4(C)C3CCC21C (stereo not drawn) [Compound 4, 4-methylergost-7-en-3-ol] | did not show significant increase or decrease in amount of food consumption | almost the same as that of the group administered with the negative sample | 128.7 ± 14.5 | 21.7 ± 2.2 |
| CCC(CCC(C)C1CCC2C3=CCC4C(C)C(O)CCC4(C)C3CCC21C)C(C)C (stereo not drawn) [Compound 5, 4-methylstigmast-7-en-3-ol] | did not show significant increase or decrease in amount of food consumption | almost the same as that of the group administered with the negative sample | 152.7 ± 28.1 | 21.4 ± 1.3 |

Some entries repeat one wording, which the source may state once for all of them.
